Experimental data: PubChem BioAssay AID248 (DTP/NCI, 2004)
The list does not hold the whole screen: it is rich in T/C values a quarter to a half above the control, in often repeated tests (any T/C) and in doses without a T/C. Further doses and runs are listed elsewhere. T/C gives the treated animals as a percentage of the vehicle group. Some entries give survivors of the animals treated and no T/C: the source holds a T/C of zero for them, seemingly a mark for toxic or unscored doses. Some doses without a T/C left all or most animals alive at the check, yet need not have been tolerated: survival well below the control is almost never listed, so the zero probably covers shortened survival too. Counts of survivors are from the toxicity check (mostly the fifth day) where no day follows; animals may have died later. Schedule codes are those of the source, taken here to give the interval after Q, in days (D) or hours (H), and the number of doses after X. Some doses were run more than once; the values are given in rising order. Some schedule codes hold Z or #, which are not explained here. Some molecules as drawn cover several salts, stereoisomers or complexes of the source; a dose is that of the sample tested. Marks such as (2×) say how often a value occurs here. For survival time, this PubChem deposit counts one and a half times the control or more as active, and values a quarter to a half above the control carry no call in these data; other NCI protocols may use other cut-offs. Some T/C values carry the count of animals alive at the toxicity check (mostly the fifth day); without a count, all were alive then.

System: L1210 leukemia ip in BDF1 mice, survival T/C
Assay: NCI In Vivo Anticancer Drug Screen. Data for tumor model L1210 Leukemia (intraperitoneal) in B6D2F1 (BDF1) mice
Conditions: T/C endpoint: mean survival time, higher T/C = longer survival
[1] = dose: 100.0 mg/kg/injection, schedule: Q01DX001 (ip), vehicle: saline with Tween-80
[2] = dose: 80.0 mg/kg/injection, schedule: Q01DX001 (ip), vehicle: saline
[3] = dose: 100.0 mg/kg/injection, schedule: Q04DX003 (ip), vehicle: saline
[4] = dose: 200.0 mg/kg/injection, schedule: Q04DX003 (ip), vehicle: saline
[5] = dose: 400.0 mg/kg/injection, schedule: Q01DX001 (ip), vehicle: saline
[6] = dose: 100.0 mg/kg/injection, schedule: Q01DX001 (ip), vehicle: carboxymethylcellulose (CMC)
[7] = dose: 400.0 mg/kg/injection, schedule: Q01DX001 (ip), vehicle: carboxymethylcellulose (CMC)
[8] = dose: 400.0 mg/kg/injection, schedule: Q04DX003 (ip), vehicle: Klucel (hydroxypropylcellulose) (HPC)
[9] = dose: 400.0 mg/kg/injection, schedule: Q01DX009 (ip), vehicle: Klucel (hydroxypropylcellulose) (HPC)
[10] = dose: 400.0 mg/kg/injection, schedule: Q04DX003 (ip), vehicle: saline
[11] = dose: 300.0 mg/kg/injection, schedule: Q01DX001 (ip), vehicle: saline

## CN(C)C(=O)c1cc(NC(=O)c2ccc(C(=O)Nc3cc(C(=O)N(C)C)cc(C4=NCCN4)c3)cc2)cc(C2=NCCN2)c1
dose: 30.0 mg/kg/injection, schedule: Q01DX015 (ip), vehicle: methylcellulose (MC)
  survivor count: 2 of 6 and 3 of 6
dose: 60.0 mg/kg/injection, schedule: Q01DX015 (ip), vehicle: methylcellulose (MC)
  survivor count: 1 of 6
dose: 120.0 mg/kg/injection, schedule: Q01DX015 (ip), vehicle: methylcellulose (MC)
  survivor count: 1 of 6

## O=[N+]([O-])c1ccc(SNc2ccc(NSc3ccc([N+](=O)[O-])cc3)cc2)cc1
[1]
  survivor count: 2 of 6

## OCC1OC(n2cc(Br)c3c(NO)ncnc32)C(O)C1O (stereo not drawn)
dose: 20.0 mg/kg/injection, schedule: Q01DX001 (ip), vehicle: saline
  survivor count: 0 of 4
dose: 40.0 mg/kg/injection, schedule: Q01DX001 (ip), vehicle: saline
  survivor count: 0 of 4
[2]
  survivor count: 0 of 4

## CCc1ccc2c(c1)N(CC(C)CN(C)C)c1ccccc1S2 (stereo not drawn)
dose: 25.0 mg/kg/injection, schedule: Q01DX009 (ip), vehicle: saline
  survivor count: 3 of 6
dose: 50.0 mg/kg/injection, schedule: Q04DX003 (ip), vehicle: saline
  survivor count: 0 of 4
[3]
  survivor count: 0 of 4
[4]
  survivor count: 0 of 4

## COC(=O)C(NC(=O)C(C)NC(=O)c1cnc2ccccc2n1)C(C)C (stereo not drawn)
[5]
  survivor count: 1 of 6

## ON=C(c1ccccc1)c1ccccc1
dose: 400.0 mg/kg/injection, schedule: Q01DX009 (ip), vehicle: saline with Tween-80
  survivor count: 0 of 6

## COc1cc(N)ccc1NC(=O)c1ccccc1
dose: 50.0 mg/kg/injection, schedule: Q01DX001 (ip), vehicle: carboxymethylcellulose (CMC)
  survivor count: 0 of 4
[6]
  survivor count: 0 of 6
dose: 200.0 mg/kg/injection, schedule: Q01DX001 (ip), vehicle: carboxymethylcellulose (CMC)
  survivor count: 0 of 6
[7]
  survivor count: 0 of 6

## c1ccc(N=Nc2ccc(NC3=NCCO3)cc2)cc1
[8]
  survivor count: 6 of 6

## CC(=O)Nc1nc(/C=C\c2ccc([N+](=O)[O-])cc2)c(CCCCc2ccccc2)c(=O)[nH]1
dose: 25.0 mg/kg/injection, schedule: Q01DX001 (ip), vehicle: saline with Tween-80
  survivor count: 6 of 6
dose: 50.0 mg/kg/injection, schedule: Q01DX001 (ip), vehicle: saline with Tween-80
  survivor count: 6 of 6
[1]
  survivor count: 6 of 6

## c1ccc(-c2csc3n4ccccc4c[n+]23)cc1
dose: 100.0 mg/kg/injection, schedule: Q04DX002 (ip), vehicle: saline with Tween-80
  survivor count: 1 of 3
dose: 200.0 mg/kg/injection, schedule: Q04DX002 (ip), vehicle: saline with Tween-80
  survivor count: 0 of 3
dose: 400.0 mg/kg/injection, schedule: Q04DX002 (ip), vehicle: saline with Tween-80
  survivor count: 0 of 3

## CN(C)CCCNC(=S)C(=S)NCCCN(C)C
[8]
  survivor count: 0 of 6

## CCOC(=O)c1ccc(N=NN(C)CC(C)C)cc1
[9]
  T/C: 131 % of control

## c1ccc(N2CCNCC2)cc1
[2]
  survivor count: 1 of 6 and 2 of 6
dose: 100.0 mg/kg/injection, schedule: Q01DX001 (ip), vehicle: saline
  survivor count: 0 of 4 (2×), 1 of 4, 2 of 4
[3]
  survivor count: 0 of 6
dose: 200.0 mg/kg/injection, schedule: Q01DX001 (ip), vehicle: saline
  survivor count: 0 of 4 (5×)
[4]
  survivor count: 0 of 6
[5]
  survivor count: 0 of 4 (4×) and 1 of 4
[10]
  survivor count: 0 of 6

## Nc1nc(N)c2cc(N3CCCC3c3ccc(Cl)cc3)ccc2n1 (stereo not drawn)
dose: 50.0 mg/kg/injection, schedule: Q01DX009 (ip), vehicle: water
  survivor count: 2 of 6
dose: 100.0 mg/kg/injection, schedule: Q01DX009 (ip), vehicle: water
  survivor count: 0 of 6
dose: 200.0 mg/kg/injection, schedule: Q01DX009 (ip), vehicle: water
  survivor count: 0 of 6
dose: 400.0 mg/kg/injection, schedule: Q01DX009 (ip), vehicle: water
  survivor count: 0 of 6

## O=S(=O)(CCl)OCCCCOS(=O)(=O)CCl
dose: 54.0 mg/kg/injection, schedule: Q01DX015 (ip), vehicle: saline
  T/C: 125 % of control
dose: 90.0 mg/kg/injection, schedule: Q01DX009 (ip), vehicle: saline
  T/C: 136 % of control [5 of 6 alive]
dose: 150.0 mg/kg/injection, schedule: Q01DX009 (ip), vehicle: saline
  survivor count: 1 of 6
dose: 150.0 mg/kg/injection, schedule: Q01DX015 (ip), vehicle: saline
  T/C: 136 % of control
dose: 200.0 mg/kg/injection, schedule: Q01DX001 (ip), vehicle: saline, evaluated on day 30
  T/C: 107 % of control
dose: 200.0 mg/kg/injection, schedule: Q01DX001 (ip), vehicle: saline, run until all animals had died
  T/C: 109, 121, 129 % of control [3 of 4 alive]
[11]
  T/C: 128 % of control [4 of 6 alive]
[5]
  survivor count: 0 of 4
dose: 400.0 mg/kg/injection, schedule: Q01DX015 (ip), vehicle: saline
  survivor count: 0 of 6

## CCCCCCC(C(C(C)=O)C(C)=O)C(C(C)=O)C(C)=O
dose: 400.0 mg/kg/injection, schedule: Q04DX003 (ip), vehicle: saline with Tween-80
  survivor count: 6 of 6

## CCOC(=O)C1C(=O)CC2c3nc4ccccc4cc3CN2C1=O (stereo not drawn)
[11]
  survivor count: 3 of 6

## CSC1c2ccccc2-c2ccccc21
[6]
  T/C: 128 % of control

## CCCCCCCCCCCCCCCCCC(=O)NCNC(=O)CCCCCCCCCCCCCCCCC
dose: 75.0 mg/kg/injection, schedule: Q01DX009 (ip), vehicle: saline with Tween-80
  survivor count: 6 of 6
dose: 150.0 mg/kg/injection, schedule: Q01DX009 (ip), vehicle: saline with Tween-80
  survivor count: 6 of 6

## CC(=O)Nc1cc2c(cc1Br)-c1ccccc1C2O (stereo not drawn)
dose: 375.0 mg/kg/injection, schedule: Q01DX Z (ip), vehicle: other
  survivor count: 3 of 6
[7]
  survivor count: 1 of 4
dose: 1000.0 mg/kg/injection, schedule: Q01DX Z (ip), vehicle: saline
  survivor count: 0 of 6

## O=C(O)COc1ccc(Cl)cc1CC(Cl)CCl (stereo not drawn)
dose: 200.0 mg/kg/injection, schedule: Q01DX009 (ip), vehicle: Klucel (hydroxypropylcellulose) (HPC)
  survivor count: 3 of 6
[9]
  survivor count: 0 of 6

## S=c1nc2ccccn2c(=S)n1-c1ccccn1
dose: 400.0 mg/kg/injection, schedule: Q01DX001 (ip), vehicle: saline with Tween-80
  survivor count: 0 of 6

## CC1(C)CC(=O)CC(C)(C)N1
[10]
  survivor count: 4 of 6
